Among the data in the odorant receptor screen of Mainland et al. (2015) are odorant receptor activation values, retold here.

Structures are written as SMILES. “And” between values parts separate entries of the source, which are not always exact repeats. Identical values can stand only once. The list shows a part of the results. Single wells; the ratio to wells without odorant was worked out here, and repeats agree poorly.

Test systems include OR6Q1 clone 1231; OR6T1 clone 1188; OR6V1 clone 1730; OR6X1 clone 1239; OR6Y1 V252I clone 1025; OR7A10 clone 1104; OR7A17 clone 1300; OR7A5 clone 1469; OR7C1 clone 1299.
Common to all, as to experiment: odorant receptor activation (CRE luciferase / Renilla) (fold of no-odor wells); higher = more activation
Conditions in all cases: 100 µM

Assay [1] deals with OR6S1 T42I/V156I/R237H clone 1271.

Regarding `CC(C)=CCCC(C)=CC=O` [citral], the odorant receptor activation in the assay on OR6Q1 clone 1231 is 1.29; in assay [1], 1.1; with OR6T1 clone 1188, 0.872; in the assay on OR6V1 clone 1730, 0.925; with OR6X1 clone 1239, 0.763; with OR6Y1 V252I clone 1025, 1.31. Also, the odorant receptor activation stood at 1.05 in the assay with OR7A10 clone 1104, 0.86 in the assay on OR7A17 clone 1300, 1.01 in the assay on OR7A5 clone 1469 and 1.32 in the assay on OR7C1 clone 1299.

In the case of `CC(=O)OC(C)(C)C1CC=C(C)CC1` (stereo not given) [terpinyl acetate], the odorant receptor activation with OR6Q1 clone 1231 was 0.982; in [1], 0.882; in the assay with OR6T1 clone 1188, 1.08; with OR6V1 clone 1730, 1.1; in the assay on OR6X1 clone 1239, 1.13; in the assay with OR6Y1 V252I clone 1025 it was 1.32. Further, the odorant receptor activation is 1.93 in the assay with OR7A10 clone 1104, 0.889 with OR7A17 clone 1300, 0.939 in the assay on OR7A5 clone 1469 and 0.863 with OR7C1 clone 1299.

For the compound `CC/C=C\CCO` [cis-3-hexen-1-ol], the odorant receptor activation in the assay with OR6Q1 clone 1231 was determined as 1.17; in [1], 0.957; in the assay on OR6T1 clone 1188, 1; in the assay on OR6V1 clone 1730, 0.932; in the assay with OR6X1 clone 1239 it was 0.937; in the assay on OR6Y1 V252I clone 1025, 0.885. The odorant receptor activation turned out to be 0.962 with OR7A10 clone 1104, 0.787 in the assay on OR7A17 clone 1300, 0.84 in the assay with OR7A5 clone 1469 and 1.15 in the assay on OR7C1 clone 1299.

`CCCCCCCC=CC=O` [2-decenal]: the odorant receptor activation in the assay on OR6Q1 clone 1231 stood at 0.865; in assay [1], 1.3; in the assay with OR6T1 clone 1188, 1.41; in the assay with OR6V1 clone 1730 it was 1.01; in the assay with OR6X1 clone 1239 it was 0.963; in the assay with OR6Y1 V252I clone 1025 it was 10.5. Also, the odorant receptor activation with OR7A10 clone 1104 was 10.9; in the assay with OR7A17 clone 1300, 1.06; with OR7A5 clone 1469, 1.95; in the assay with OR7C1 clone 1299, 1.32.

In the case of `CC=Cc1ccc(O)c(OC)c1` [isoeugenol], the odorant receptor activation in the assay with OR6Q1 clone 1231 was 1.13; in assay [1] it was 0.967 and 1.46; with OR6T1 clone 1188, 0.981; in the assay with OR6V1 clone 1730, 4.9; with OR6X1 clone 1239, 4.35; in the assay with OR6Y1 V252I clone 1025, 2.21. Further, the odorant receptor activation with OR7A10 clone 1104 was 1.4; in the assay on OR7A17 clone 1300, 1.78 and 1.29; in the assay with OR7A5 clone 1469, 0.897 and 1.84; in the assay with OR7C1 clone 1299, 1.11 and 1.28.

With `CC(C)CC(=O)O` [isovaleric acid], the odorant receptor activation in the assay with OR6Q1 clone 1231 was found to be 1.07; in assay [1], 0.766; in the assay on OR6T1 clone 1188 it was 0.974; in the assay on OR6V1 clone 1730, 1.07; in the assay on OR6X1 clone 1239, 1.25; in the assay on OR6Y1 V252I clone 1025, 1.21. The odorant receptor activation in the assay on OR7A10 clone 1104 came to 1.03; with OR7A17 clone 1300, 0.974; with OR7A5 clone 1469, 0.831; in the assay with OR7C1 clone 1299, 0.951.

Regarding `CCCCCCCOC(C)=O` [heptyl acetate], the odorant receptor activation with OR6Q1 clone 1231 was 0.909; in assay [1] it was 1.06 and 1.09; with OR6T1 clone 1188 it was 0.804; with OR6V1 clone 1730 it was 0.811; in the assay on OR6X1 clone 1239, 0.889; with OR6Y1 V252I clone 1025 it was 2.91. The odorant receptor activation in the assay with OR7A10 clone 1104 is 1.2; in the assay with OR7A17 clone 1300, 1.4 and 0.872; in the assay on OR7A5 clone 1469, 1.03 and 1.26; in the assay with OR7C1 clone 1299, 0.889 and 0.854.

Turning to `C=CCSCC=C` [diallyl sulfide], the odorant receptor activation worked out at 0.939 in the assay with OR6Q1 clone 1231; 1.09 in assay [1]; 1.13 with OR6T1 clone 1188; 0.931 with OR6V1 clone 1730; 0.745 in the assay with OR6X1 clone 1239; 1.25 with OR6Y1 V252I clone 1025. Further, the odorant receptor activation in the assay with OR7A10 clone 1104 came out at 0.914; in the assay with OR7A17 clone 1300, 0.848; in the assay with OR7A5 clone 1469, 1.53; in the assay with OR7C1 clone 1299 it was 0.996.

With `C=CCc1ccc(OC)c(OC)c1` [eugenol methyl ether], the odorant receptor activation in the assay with OR6Q1 clone 1231 was determined as 1.69; in [1], 1.51; in the assay with OR6T1 clone 1188, 1.72; in the assay with OR6V1 clone 1730, 0.561; with OR6X1 clone 1239, 1.03; with OR6Y1 V252I clone 1025, 1.41. Moreover, the odorant receptor activation with OR7A10 clone 1104 turned out to be 1.42; in the assay on OR7A17 clone 1300, 1.07; with OR7A5 clone 1469, 1.82; in the assay with OR7C1 clone 1299, 1.45.

Consider `C=C(C)C1CC=CCC1` (stereo not given) [r-limonene], for which the odorant receptor activation with OR6Q1 clone 1231 was 1.07; in assay [1], 0.942 and 0.378; in the assay with OR6T1 clone 1188 it was 0.98 and 0.877; in the assay with OR6V1 clone 1730, 1.03; with OR6X1 clone 1239, 1.17; in the assay on OR6Y1 V252I clone 1025 it was 1.27 and 1.45. Moreover, the odorant receptor activation in the assay on OR7A10 clone 1104 was 1.38 and 0.95; in the assay with OR7A17 clone 1300, 0.769 and 0.418; in the assay on OR7A5 clone 1469 it was 0.851 and 0.52 and 0.759; in the assay on OR7C1 clone 1299, 0.994 and 0.355.

Regarding `CCCC(=O)O` [butyric acid], the odorant receptor activation with OR6Q1 clone 1231 came out at 1.26; in [1], 0.979; with OR6T1 clone 1188 it was 0.881; in the assay with OR6V1 clone 1730, 1.01; in the assay with OR6X1 clone 1239 it was 1.18; in the assay on OR6Y1 V252I clone 1025 it was 1.1. For the same compound, the odorant receptor activation came to 1.2 in the assay on OR7A10 clone 1104, 0.92 with OR7A17 clone 1300, 0.832 with OR7A5 clone 1469 and 1.32 in the assay with OR7C1 clone 1299.

Regarding `C=CCc1ccc(O)c(OC)c1` [eugenol], the odorant receptor activation in the assay on OR6Q1 clone 1231 is 1.44; in assay [1], 0.911 and 1.27; in the assay on OR6T1 clone 1188 it was 1.4 and 1.54; with OR6V1 clone 1730, 1.2; in the assay on OR6X1 clone 1239, 1.08; in the assay with OR6Y1 V252I clone 1025 it was 0.966 and 1.48. The odorant receptor activation is 1.32 and 1.3 with OR7A10 clone 1104; 1.25 and 1.11 in the assay with OR7A17 clone 1300; 2.02 and 0.933 and 1.36 in the assay on OR7A5 clone 1469; 1.73 and 1.36 with OR7C1 clone 1299.

`CC12CCC(CC1)C(C)(C)O2` [cineole]: the odorant receptor activation in the assay with OR6Q1 clone 1231 came out at 1.02; in assay [1] it was 0.811; in the assay with OR6T1 clone 1188, 1.01; in the assay on OR6V1 clone 1730 it was 0.965; in the assay with OR6X1 clone 1239 it was 0.903; with OR6Y1 V252I clone 1025, 0.874. For the same compound, the odorant receptor activation in the assay on OR7A10 clone 1104 was determined as 0.772; with OR7A17 clone 1300, 0.775; with OR7A5 clone 1469 it was 0.814; in the assay with OR7C1 clone 1299, 1.23.
